Among the data in article PMC4821352 are binding values, retold here.

By UniProt entry, the sequences of proteins in these tests, tags left out.
UniProt P41208: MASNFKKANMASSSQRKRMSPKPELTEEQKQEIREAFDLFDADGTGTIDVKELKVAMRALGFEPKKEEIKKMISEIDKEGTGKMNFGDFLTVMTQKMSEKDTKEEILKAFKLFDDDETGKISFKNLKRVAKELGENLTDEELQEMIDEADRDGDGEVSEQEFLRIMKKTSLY
UniProt Q63472: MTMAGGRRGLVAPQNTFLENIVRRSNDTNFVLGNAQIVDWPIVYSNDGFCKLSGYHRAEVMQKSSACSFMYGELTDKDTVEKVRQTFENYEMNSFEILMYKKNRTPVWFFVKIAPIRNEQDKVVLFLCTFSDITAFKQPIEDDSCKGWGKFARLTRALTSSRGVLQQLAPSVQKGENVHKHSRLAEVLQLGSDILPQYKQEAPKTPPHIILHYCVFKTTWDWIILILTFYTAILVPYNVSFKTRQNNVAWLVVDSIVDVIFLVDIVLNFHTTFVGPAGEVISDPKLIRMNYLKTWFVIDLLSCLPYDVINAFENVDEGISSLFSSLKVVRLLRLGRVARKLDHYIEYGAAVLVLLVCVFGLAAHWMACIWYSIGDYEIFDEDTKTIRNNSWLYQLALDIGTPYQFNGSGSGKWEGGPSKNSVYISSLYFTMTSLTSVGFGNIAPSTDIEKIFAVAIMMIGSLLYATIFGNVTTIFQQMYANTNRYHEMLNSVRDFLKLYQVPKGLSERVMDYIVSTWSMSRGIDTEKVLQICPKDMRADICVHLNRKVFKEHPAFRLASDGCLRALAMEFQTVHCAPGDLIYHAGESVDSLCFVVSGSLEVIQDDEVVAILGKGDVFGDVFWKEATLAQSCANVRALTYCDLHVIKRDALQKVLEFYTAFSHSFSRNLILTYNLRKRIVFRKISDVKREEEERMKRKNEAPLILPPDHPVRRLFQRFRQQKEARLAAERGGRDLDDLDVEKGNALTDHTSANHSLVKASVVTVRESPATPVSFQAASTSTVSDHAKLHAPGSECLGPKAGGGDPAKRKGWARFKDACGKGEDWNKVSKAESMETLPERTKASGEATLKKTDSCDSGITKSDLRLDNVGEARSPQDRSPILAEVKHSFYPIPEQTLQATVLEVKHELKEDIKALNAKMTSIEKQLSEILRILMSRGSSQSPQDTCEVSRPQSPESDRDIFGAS

Results are given in words; binding and its absence hold for the method and conditions named. Binding seen in cells or lysates may run through a third protein. Some entries that bind do so weakly or less than the wild type.

This experiment has as its target GFP-tagged centrin 2 (human) (UniProt P41208). Kind of experiment: co-IP; transfected HEK293T cells solubilized in IP buffer (20 mM Tris-HCl pH 7.4, 150 mM NaCl, 1% Triton X-100, 0.5% Na-deoxycholate, 0.1% SDS, 1 mM EDTA); 16 h at 4 °C with antibody-coated protein A/G sepharose beads; immunoblot.

Consider “rat Eag1 (rEag1) K+ channel, expressed from pcDNA3 (from UniProt Q63472 1-962)”, for which the binding entry is on record as “binds”.
